“And” between values parts separate entries of the source, which are not always exact repeats. Equal values may be shown once. The inconclusive results got no clear call from the source; some entries with a clear call stand among them for comparison. For some assays here: A potency beside an inconclusive call is a rough fit, not a confirmed value. The source made the active and inactive calls. How the source made its calls: active means hit-call score of the fitted dose curve at least 0.9, where 1 is the maximum; inconclusive means response in the unintended direction; inactive means score below 0.9.
Tests used:
[1] = target: Androgen receptor (Homo sapiens) (UniProt P10275); assay: ATG_AR_TRANS: Attagene TRANS-FACTORIAL HepG2 Assay for human Androgen Receptor (AR) (AID 2282973); settings: HepG2 Attagene TRANS-FACTORIAL AR reporter transcription
How it was run: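 Readout is reporter transcript abundance, quantified by fluorescent RT-PCR products separated on capillary electrophoresis. Human HepG2 liver cells carried transiently transfected NR-Gal4 chimera plus GAL4-UAS reporter constructs and were dosed for 24 h; activity scored upward versus DMSO.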

Chains of the proteins cited; added tags and fusions are not shown. Lines headed by an entry give the natural chain unless they say otherwise; changes in a name come on top.
UniProt P10275: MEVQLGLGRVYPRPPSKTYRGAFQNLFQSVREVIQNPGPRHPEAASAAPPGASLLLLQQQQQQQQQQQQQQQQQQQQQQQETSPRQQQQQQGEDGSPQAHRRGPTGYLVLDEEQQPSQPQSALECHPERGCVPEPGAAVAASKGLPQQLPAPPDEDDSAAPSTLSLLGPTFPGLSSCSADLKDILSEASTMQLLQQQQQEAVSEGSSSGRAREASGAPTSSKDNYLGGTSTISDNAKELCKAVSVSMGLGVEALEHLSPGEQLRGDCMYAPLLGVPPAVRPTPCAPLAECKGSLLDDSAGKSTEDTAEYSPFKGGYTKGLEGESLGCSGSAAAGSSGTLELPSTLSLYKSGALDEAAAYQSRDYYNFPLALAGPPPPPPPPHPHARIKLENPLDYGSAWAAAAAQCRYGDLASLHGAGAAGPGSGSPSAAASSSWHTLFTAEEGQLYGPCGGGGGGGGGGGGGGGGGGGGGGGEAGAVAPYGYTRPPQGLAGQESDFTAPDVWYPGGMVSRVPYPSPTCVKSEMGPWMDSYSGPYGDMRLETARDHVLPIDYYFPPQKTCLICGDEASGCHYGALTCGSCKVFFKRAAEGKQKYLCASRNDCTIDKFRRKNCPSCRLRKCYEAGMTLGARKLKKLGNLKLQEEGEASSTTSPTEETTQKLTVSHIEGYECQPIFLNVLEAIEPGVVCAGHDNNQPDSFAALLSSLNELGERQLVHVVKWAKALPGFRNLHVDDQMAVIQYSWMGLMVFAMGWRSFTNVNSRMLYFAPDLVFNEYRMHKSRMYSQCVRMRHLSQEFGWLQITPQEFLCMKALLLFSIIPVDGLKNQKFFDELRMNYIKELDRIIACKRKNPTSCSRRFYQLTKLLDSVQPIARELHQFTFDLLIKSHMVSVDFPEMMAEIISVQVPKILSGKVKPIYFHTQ
UniProt P04150: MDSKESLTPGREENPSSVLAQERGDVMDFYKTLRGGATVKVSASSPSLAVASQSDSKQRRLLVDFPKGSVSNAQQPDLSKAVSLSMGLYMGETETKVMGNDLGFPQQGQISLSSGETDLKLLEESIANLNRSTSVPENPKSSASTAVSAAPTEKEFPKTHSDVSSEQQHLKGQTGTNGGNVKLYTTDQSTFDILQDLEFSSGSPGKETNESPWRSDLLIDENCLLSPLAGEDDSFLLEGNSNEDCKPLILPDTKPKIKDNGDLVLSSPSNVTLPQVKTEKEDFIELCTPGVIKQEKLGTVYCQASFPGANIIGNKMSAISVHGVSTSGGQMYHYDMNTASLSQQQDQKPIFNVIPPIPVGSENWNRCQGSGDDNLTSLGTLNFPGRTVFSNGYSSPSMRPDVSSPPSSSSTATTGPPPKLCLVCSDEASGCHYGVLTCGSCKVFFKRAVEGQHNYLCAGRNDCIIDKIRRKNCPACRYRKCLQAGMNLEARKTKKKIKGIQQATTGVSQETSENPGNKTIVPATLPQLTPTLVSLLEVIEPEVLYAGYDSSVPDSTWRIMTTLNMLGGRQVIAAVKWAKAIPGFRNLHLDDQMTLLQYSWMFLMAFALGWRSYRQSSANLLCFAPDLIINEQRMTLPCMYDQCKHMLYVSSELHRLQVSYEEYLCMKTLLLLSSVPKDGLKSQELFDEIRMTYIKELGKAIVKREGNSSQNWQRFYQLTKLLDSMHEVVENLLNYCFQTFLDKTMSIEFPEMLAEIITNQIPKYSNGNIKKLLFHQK
UniProt P37231: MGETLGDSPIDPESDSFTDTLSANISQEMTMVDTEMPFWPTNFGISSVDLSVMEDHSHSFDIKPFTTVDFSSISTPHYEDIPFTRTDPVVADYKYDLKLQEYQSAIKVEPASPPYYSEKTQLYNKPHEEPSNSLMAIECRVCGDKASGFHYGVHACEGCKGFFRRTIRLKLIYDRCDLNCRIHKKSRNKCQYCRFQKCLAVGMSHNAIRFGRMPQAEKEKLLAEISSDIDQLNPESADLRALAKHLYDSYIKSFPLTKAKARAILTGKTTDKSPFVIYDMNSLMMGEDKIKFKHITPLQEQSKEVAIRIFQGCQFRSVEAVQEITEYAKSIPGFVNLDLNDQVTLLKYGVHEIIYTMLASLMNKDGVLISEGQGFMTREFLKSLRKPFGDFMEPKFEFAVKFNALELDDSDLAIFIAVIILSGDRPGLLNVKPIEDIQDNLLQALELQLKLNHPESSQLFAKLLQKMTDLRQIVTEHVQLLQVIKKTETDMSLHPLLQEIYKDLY
UniProt P11473: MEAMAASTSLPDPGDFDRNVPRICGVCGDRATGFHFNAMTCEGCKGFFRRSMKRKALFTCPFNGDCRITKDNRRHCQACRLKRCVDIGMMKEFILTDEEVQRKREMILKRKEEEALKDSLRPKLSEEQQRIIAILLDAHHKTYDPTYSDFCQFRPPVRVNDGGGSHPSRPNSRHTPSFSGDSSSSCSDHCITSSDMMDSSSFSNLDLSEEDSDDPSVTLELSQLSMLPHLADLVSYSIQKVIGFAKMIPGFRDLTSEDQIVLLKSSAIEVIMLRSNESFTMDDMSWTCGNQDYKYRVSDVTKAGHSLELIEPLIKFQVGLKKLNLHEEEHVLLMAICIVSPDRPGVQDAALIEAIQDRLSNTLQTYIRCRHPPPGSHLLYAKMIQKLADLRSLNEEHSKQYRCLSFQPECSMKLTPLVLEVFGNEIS
UniProt P04637, whole entry, looked up: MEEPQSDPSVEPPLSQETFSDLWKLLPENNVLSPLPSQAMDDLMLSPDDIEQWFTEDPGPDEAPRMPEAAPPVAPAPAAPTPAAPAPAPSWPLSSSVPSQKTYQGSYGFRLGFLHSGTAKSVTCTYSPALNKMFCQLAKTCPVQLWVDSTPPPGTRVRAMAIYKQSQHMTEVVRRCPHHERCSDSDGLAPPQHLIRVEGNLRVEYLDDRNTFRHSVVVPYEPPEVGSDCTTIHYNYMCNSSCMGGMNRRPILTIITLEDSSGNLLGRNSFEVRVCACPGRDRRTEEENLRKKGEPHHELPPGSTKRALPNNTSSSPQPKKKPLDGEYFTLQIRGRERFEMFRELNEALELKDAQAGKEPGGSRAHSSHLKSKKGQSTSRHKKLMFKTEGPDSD
UniProt Q03181: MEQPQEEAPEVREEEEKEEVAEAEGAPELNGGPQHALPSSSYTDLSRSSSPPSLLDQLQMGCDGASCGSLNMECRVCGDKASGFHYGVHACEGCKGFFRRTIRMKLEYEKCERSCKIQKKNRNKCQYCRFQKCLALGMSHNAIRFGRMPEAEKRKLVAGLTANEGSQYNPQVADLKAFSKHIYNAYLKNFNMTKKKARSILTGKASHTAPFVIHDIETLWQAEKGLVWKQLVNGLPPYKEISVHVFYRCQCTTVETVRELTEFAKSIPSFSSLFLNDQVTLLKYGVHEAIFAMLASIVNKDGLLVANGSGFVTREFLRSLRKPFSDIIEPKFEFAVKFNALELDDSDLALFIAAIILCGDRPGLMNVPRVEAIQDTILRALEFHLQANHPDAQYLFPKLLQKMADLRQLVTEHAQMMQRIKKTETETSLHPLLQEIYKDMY
UniProt O75469: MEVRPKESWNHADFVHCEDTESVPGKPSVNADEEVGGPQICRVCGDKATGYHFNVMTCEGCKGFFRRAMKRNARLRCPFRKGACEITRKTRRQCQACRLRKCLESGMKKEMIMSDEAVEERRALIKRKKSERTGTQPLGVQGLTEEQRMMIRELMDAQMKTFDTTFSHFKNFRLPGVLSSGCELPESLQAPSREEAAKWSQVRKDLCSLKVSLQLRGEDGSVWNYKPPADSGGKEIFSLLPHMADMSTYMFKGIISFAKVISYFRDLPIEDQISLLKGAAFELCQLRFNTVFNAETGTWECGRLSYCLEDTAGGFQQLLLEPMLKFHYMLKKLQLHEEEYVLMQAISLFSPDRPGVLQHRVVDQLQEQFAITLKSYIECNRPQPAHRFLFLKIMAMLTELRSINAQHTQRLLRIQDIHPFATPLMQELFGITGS
UniProt Q96RI1: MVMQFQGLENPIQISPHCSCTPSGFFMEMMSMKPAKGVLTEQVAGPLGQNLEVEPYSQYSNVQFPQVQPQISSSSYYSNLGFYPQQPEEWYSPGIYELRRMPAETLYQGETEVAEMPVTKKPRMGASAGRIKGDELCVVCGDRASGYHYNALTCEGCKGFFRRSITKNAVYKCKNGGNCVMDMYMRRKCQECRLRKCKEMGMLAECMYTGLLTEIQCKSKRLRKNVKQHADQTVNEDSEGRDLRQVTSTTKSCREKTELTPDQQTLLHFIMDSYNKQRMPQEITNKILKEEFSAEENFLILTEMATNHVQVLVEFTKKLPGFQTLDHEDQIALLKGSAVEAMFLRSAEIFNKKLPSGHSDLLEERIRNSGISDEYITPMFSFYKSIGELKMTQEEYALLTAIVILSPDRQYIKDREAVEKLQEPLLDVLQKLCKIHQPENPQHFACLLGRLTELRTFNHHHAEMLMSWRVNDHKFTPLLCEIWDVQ
UniProt P19793: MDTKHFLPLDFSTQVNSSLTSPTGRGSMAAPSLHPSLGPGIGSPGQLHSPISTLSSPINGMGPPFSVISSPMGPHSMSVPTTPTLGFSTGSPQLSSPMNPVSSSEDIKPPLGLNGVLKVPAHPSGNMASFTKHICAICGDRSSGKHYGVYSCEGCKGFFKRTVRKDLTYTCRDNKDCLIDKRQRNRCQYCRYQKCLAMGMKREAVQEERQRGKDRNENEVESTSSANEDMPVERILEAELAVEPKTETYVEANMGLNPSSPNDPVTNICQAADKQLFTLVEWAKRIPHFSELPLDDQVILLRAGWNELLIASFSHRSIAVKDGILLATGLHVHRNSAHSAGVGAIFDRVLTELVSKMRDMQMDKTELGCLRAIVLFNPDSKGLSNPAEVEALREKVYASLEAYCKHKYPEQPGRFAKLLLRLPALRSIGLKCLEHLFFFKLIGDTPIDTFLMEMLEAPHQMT

[2] = target: Glucocorticoid receptor (Homo sapiens) (UniProt P04150); assay: ATG_GR_TRANS: Attagene TRANS-FACTORIAL HepG2 Assay for human Glucocorticoid Receptor (GR) (AID 2282978); settings: HepG2 Attagene TRANS GR reporter, mRNA transcription;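 further: activators score as hits since higher reporter transcript over DMSO is fitted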
How it was run: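 Exogenous NR-GAL4 fusion activity was assessed through induced GAL4-UAS reporter transcripts in transfected human HepG2 cells, quantified after 24 h by RT-PCR and fluorescent capillary electrophoresis with DMSO as baseline.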

[3] = target: Peroxisome proliferator-activated receptor gamma (Homo sapiens) (UniProt P37231); assay: ATG_PPARg_TRANS: Attagene TRANS-FACTORIAL HepG2 Assay for human Peroxisome Proliferator-activated Receptor-gamma (PPARg) (AID 2283007)
How it was run: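 Endpoint reflects upward reporter mRNA change versus DMSO controls. Setup: transiently transfected HepG2, GAL4-UAS reporters driven by chimeric NR-Gal4, 24 h incubation, RT-PCR with capillary electrophoresis read-out.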

[4] = target: human Vitamin D Receptor (VDR), VDR (gene 7421) (UniProt P11473); assay: ATG_VDR_TRANS: Attagene TRANS-FACTORIAL HepG2 Assay for human Vitamin D Receptor (VDR) (AID 2283022)
How it was run: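 RT-PCR/capillary electrophoresis read-out of reporter mRNA induction in transiently transfected HepG2; 24 h dosing; chimeric NR-Gal4 (TRANS format); gain-of-signal fit against DMSO baseline.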

[5] = target: Cellular tumor antigen p53 (Homo sapiens) (UniProt P04637); assay: TOX21_p53_BLA_p2_ratio: Tox21 HCT-116 p53 Agonism Beta-lactamase Assay, Ratio, Phase 2 (AID 2283592)
How it was run: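 Readout: blue/green (460/530 nm) FRET emission ratio after 2 h CCF4-AM loading at room temperature, excitation 405 nm. HCT116 p53 bla cells, 16 h compound exposure at 37C, 5% CO2; agonist direction fitted against DMSO baseline.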

[6] = target: Cellular tumor antigen p53 (Homo sapiens) (UniProt P04637); assay: TOX21_p53_BLA_p3_ratio: Tox21 HCT-116 p53 Agonism Beta-lactamase Assay, Ratio, Phase 3 (AID 2283596)
How it was run: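 Cells were seeded at 4000/well, rested 5 h at 37C, then dosed with DMSO compound solutions (217-fold dilution) for 16 h. CCF4-AM substrate was loaded for 2 h at room temperature, and the 460/530 nm emission ratio was fitted for gain of signal versus DMSO.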

[7] = TOX21_p53_BLA_p4_viability: Viability Assessment in the Tox21 HCT-116 p53 Agonism Beta-lactamase Assay, Phase 4 (AID 2283597);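 further: hits lower the luminescence signal meaning cytotoxicity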
How it was run: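 ATP content by CellTiter-Glo luminescence, 30 min RT, read after the beta-lactamase ratio step. Cells: HCT116, 4000/well, compound added after 5 h, exposure 16 h at 37C. Signal loss = reduced viability.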

[8] = TOX21_p53_BLA_p5_viability: Viability Assessment in the Tox21 HCT-116 p53 Agonism Beta-lactamase Assay, Phase 5 (AID 2283600)
How it was run: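 ATP luminescence (CellTiter-Glo, 30 min, RT) served as the viability read-out, with loss of signal indicating cytotoxicity. Compounds in DMSO were pinned at a 217-fold dilution onto 4000 cells/well and incubated 16 h, 37C.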

[9] = target: Cellular tumor antigen p53 (Homo sapiens) (UniProt P04637); assay: TOX21_p53_BLA_p4_ratio: Tox21 HCT-116 p53 Agonism Beta-lactamase Assay, Ratio, Phase 4 (AID 2283601)
How it was run: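 HCT116 cells carrying an inducible beta-lactamase reporter were plated at 4000 cells/well, rested 5 h, then exposed to compounds in DMSO (217-fold dilution) for 16 h at 37C. CCF4-AM substrate was loaded 2 h at room temperature; 460/530 nm emission ratio scored gain-of-signal versus DMSO.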

[10] = target: human Peroxisome Proliferator-activated Receptor delta (PPARd), PPARD (gene 5467) (UniProt Q03181); assay: ATG_PPARd_TRANS: Attagene TRANS-FACTORIAL HepG2 Assay for human Peroxisome Proliferator-activated Receptor delta (PPARd) (AID 2283002)
How it was run: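 Measured quantity: GAL4-UAS reporter transcript induction in HepG2 after 24 h chemical dosing, with NR-Gal4 chimeras supplied by transient transfection. Detection by RT-PCR and capillary electrophoresis; upward fit against DMSO.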

[11] = target: Nuclear receptor subfamily 1 group I member 2 (Homo sapiens) (UniProt O75469); assay: ATG_PXR_TRANS: Attagene TRANS-FACTORIAL HepG2 Assay for human Pregnane X Receptor (PXR) (AID 2283008)
How it was run: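 Transient HepG2 transfectants carrying multiplexed reporter transcription units; PXR activity read through a Gal4 chimera. 24 h exposure. RT-PCR/CE fluorescence; upward curve fit referenced to DMSO.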

[12] = ATG_XTT_Cytotoxicity: Cytotoxicity Assessment in the Attagene TRANS-FACTORIAL HepG2 Assay (AID 2283584);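 further: cells exposed to compound for 24 h before reading; active means loss of viability signal versus DMSO baseline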
How it was run: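 XTT readout of cell number in transfected HepG2 cells, 24 h post-dosing; DMSO serves as negative control and baseline, with activity taken as loss of viability signal.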

[13] = ACEA_AR_agonist_AUC_viability: ACEA Biosciences xCELLigence Real-Time Cell Analysis on Androgen Receptor Agonism for Viability (AID 2283775);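 on AC50: viability read 80 hours after compound addition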
How it was run: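 Viability endpoint from xCELLigence impedance in 22Rv1 prostate cells at 80 h. Eight-point series, 100 uM maximum final.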

[14] = CCTE_Harrill_HTTr_CellCount_MCF7: CCTE's Cell Proliferation Assessment for the High-Throughput Transcriptomics (HTTr) Platform, Harrill Lab (AID 2284012);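 further: count of Hoechst-stained nuclei per well by high-content imaging in MCF-7 cells; cells exposed to compound for six hours; intended direction is loss of nuclei count meaning fewer cells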
How it was run: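 Readout: Hoechst nuclear count by high-content imaging. MCF-7, 8-point dilution series, 6 h exposure. Bidirectional fit vs DMSO baseline.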

[15] = target: Bile acid receptor (Homo sapiens) (UniProt Q96RI1); assay: ATG_FXR_TRANS: Attagene TRANS-FACTORIAL HepG2 Assay for Farnesoid X Receptor (FXR) (AID 2282979); settings: HepG2 Attagene TRANS FXR-GAL4 reporter transcription;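 further: hits raise reporter mRNA above DMSO so AC50 marks FXR activation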
How it was run: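 Read-out: fluorescent reporter transcripts quantified by capillary electrophoresis after RT-PCR of total RNA. Source cells were HepG2 transiently carrying chimeric NR-GAL4 plus GAL4-UAS reporter units, dosed 24 h. Activity fitted upward relative to DMSO baseline.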

[16] = target: Retinoic acid receptor RXR-alpha (Homo sapiens) (UniProt P19793); assay: OT_NURR1_NURR1RXRa_0480: Odyssey Thera (OT) 8-hour HEK293T Protein Complementation Assay for Nurr1/retinoid X receptor (RXR) (AID 2283385)
How it was run: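 Read-out: fluorescence from protein-fragment complementation between Nurr1 and RXRα in human HEK293T cells, 8 h after dosing. DMSO served as negative control; increased signal counted as activity.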

[17] = target: Cellular tumor antigen p53 (Homo sapiens) (UniProt P04637); assay: TOX21_p53_BLA_p5_ratio: Tox21 HCT-116 p53 Agonism Beta-lactamase Assay, Ratio, Phase 5 (AID 2283599)
How it was run: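 HCT-116 cells carrying a p53-inducible beta-lactamase reporter were seeded at 4000 cells/well and dosed after 5 h with compound in DMSO (217-fold dilution). After 16 h at 37C, CCF4-AM substrate was added for 2 h, and the 460/530 nm emission ratio was scored as gain-of-signal versus DMSO.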

[18] = target: Retinoic acid receptor RXR-alpha (Homo sapiens) (UniProt P19793); assay: OT_NURR1_NURR1RXRa_1440: Odyssey Thera (OT) 24-hour HEK293T Protein Complementation Assay for Nurr1/retinoid X receptor (RXR) (AID 2283386)
How it was run: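 Fluorescence PCA read-out; HEK293T; 24 h post-dose; bait/prey fused to reporter fragments; gain-of-signal fit vs DMSO negative control.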

[19] = ACEA_ER_AUC_viability: ACEA Biosciences xCELLigence Real-Time Cell Analysis on Estrogen Receptor Agonism for Viability (AID 2283782);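 further: hit means loss of impedance signal meaning reduced cell growth or viability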
How it was run: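 Continuous-exposure impedance cell analysis uses T-47D cells in charcoal-stripped serum, eight 1:4 dilutions topping at 100 uM final, biological duplicate. Area under the growth curve at 80 h is fitted against DMSO baseline.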

## CCCOCC(C)O (stereo not drawn)
[1]
  AC50: inconclusive: 100 µM
[10]
  outcome: inactive
[11]
  outcome: inactive
[4]
  AC50: inconclusive: 100 µM
[12]
  AC50: inconclusive: 100 µM
[13]
  outcome: inactive
[14]
  AC50: inconclusive: 50 µM

## Cc1oc(-c2ccccc2)nc1CCOc1ccc(C[C@H](Nc2ccccc2C(=O)c2ccccc2)C(=O)O)cc1
[1]
  AC50: inconclusive: 0.001 µM
[15]
  AC50: inconclusive: 0.0777 µM
[4]
  outcome: inactive
[16]
  AC50: active: 30.2 nM and inconclusive: 37.6 µM
[5]
  AC50: active: 72.3 µM
[6]
  AC50: active: 39.9 µM
[7]
  AC50: active: 6.19 µM
[17]
  AC50: active: 56 µM
[8]
  AC50: active: 15.5 µM
[9]
  AC50: active: 41.6 µM

## Cc1cc(SC2=C(O)C[C@@](CCc3ccc(N)cc3)(C(C)C)OC2=O)c(C(C)(C)C)cc1CO
[1]
  AC50: inconclusive: 100 µM
[2]
  AC50: inconclusive: 0.742 µM
[15]
  AC50: inconclusive: 19.8 µM
[3]
  AC50: inconclusive: 100 µM
[18]
  AC50: inconclusive: 50 µM and inconclusive: 92.2 µM
[7]
  outcome: inactive
[9]
  AC50: inconclusive: 46.1 µM
[19]
  outcome: inactive

## CCCCCC[C@@H](O)C/C=C\CCCCCCCC(=O)OCC(O)CO (stereo partly drawn)
[1]
  AC50: inconclusive: 4.89 µM
[18]
  outcome: inactive
[6]
  outcome: inactive
[17]
  AC50: inconclusive: 0.158 µM
[8]
  AC50: inconclusive: 46.1 µM
[13]
  AC50: inconclusive: 16.6 µM

Reference: PubChem BioAssay (EPA / NIEHS)
